According to US20080248024A1, “THERAPEUTIC AGENT FOR CANCER, INFLAMMATION, AND AUTO-IMMUNE DISEASE CONTAINING INHIBITOR OF ZINC FINGER PROTEIN 91” (Korea Research Institute of Bioscience and Biotechnology, priority 2007, published 2008):

Tested on: MDA-MB-231 cells
Assay: 17K human cDNA microarray screen for genes regulated by KA
Assay type: cell-based
Details: kamebakaurin 10 μg/ml, 5 hours

SMILES: C=C1C(=O)[C@@]23[C@H](O)C[C@@H]4C(C)(C)CC[C@H](O)[C@@]4(CO)[C@@H]2CC[C@@H]1[C@H]3O [kamebakaurin, Kamebakaurin]
- genes down-regulated: 295
- genes up-regulated: 333
